Source: PubChem BioAssay AID445 (National Center for Advancing Translational Sciences (NCATS), 2006)
This is one part of the list. Further columns of the screen follow, without active or inactive calls. Most of these compounds were active or inconclusive in the main read-out, so they are no random draw. Words in brackets tell the shape of the fitted curve; partial curves, single points and poor fits give uncertain potencies.

Assay: IkB Signaling
Conditions: ABC-DLBCL IkBa-CBG/CBR dual luciferase ratio (green luciferase fused to IkBa over red control in OCI-Ly3 lymphoma cells), 4 h; measured here: control luc red channel unless noted
Method in brief: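 In this assay, an IκBα–CBG68 fusion accumulates when IKK-driven degradation is blocked; native CBR normalizes for cell number. OCI-Ly3 cells were treated 4 h with compound and doxycycline, then green and red light read after Chroma-Glo addition.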
For `COc1ccc(N2C(=O)Cc3cc(OC)c(OC)cc3C2c2ccc(F)cc2)cc1` (stereo unspecified), the AC50 was 31.6 µM [falling, single point]. In the case of `COc1ccc(-c2nn3c(=O)cc(CN4CCN(S(=O)(=O)c5ccc(C)cc5)CC4)nc3s2)cc1`, the AC50 is reported as 20 µM [falling, single point]. With `Cc1cc(OCC(O)CN2CCN(c3cccc(Cl)c3)CC2)ccc1Cl` (stereo unspecified) the AC50 was 15.8 µM [falling, partial curve]. With `COc1ccc(C(=O)Nc2ccc(S(=O)(=O)N(Cc3ccccc3)c3ccccc3)cc2)cc1` the AC50 was 0.631 µM [falling, full curve, poor fit]. In the case of `CCOC(=O)c1cc(-c2ccc(F)cc2)n(CCC(=O)Nc2nc3ccc(OC)cc3s2)c1C`, the AC50 is reported as 39.8 µM [falling, single point]. In the case of `COc1ccc(S(=O)(=O)N(CC(=O)Nc2cc(Cl)ccc2C)Cc2ccccc2)cc1OC`, the AC50 is reported as 10 µM [falling, partial curve]. In the case of `CCn1nc(C)c2c(-c3ccccc3)cc(=O)n(C(C)C(=O)NCCc3ccc(OC)c(OC)c3)c21` (stereo unspecified), the AC50 is reported as 12.6 µM [falling, partial curve]. For `O=C(OCC(=O)N1CCCCC1)c1cc2ccccc2cc1O`, the AC50 was 12.6 µM [falling, partial curve]. In the case of `COc1ccc(NCc2cc3cc4c(cc3n(CC(=O)Nc3ccc(C)c(C)c3)c2=O)OCO4)cc1`, the AC50 is reported as 5.01 µM [falling, full curve, poor fit]. For `CC(C)(C)OC(=O)N1CCC(c2c(C(=O)N3CCCCC3)cnn2-c2ccccc2Cl)CC1`, the AC50 was 15.8 µM [falling, partial curve]. In the case of `Cc1ccccc1-c1nc(CN2CCC(C(=O)N3CCN(c4ccccn4)CC3)CC2)c(C)o1`, the AC50 is reported as 10 µM [falling, partial curve]. With `COc1ccccc1OCc1nc(C#N)c(NCc2ccc(C)cc2)o1` the AC50 was 20 µM [falling, partial curve]. For `C=CC(C)Sc1nc2c(c(=O)n(C)c(=O)n2C)n1Cc1ccccc1Cl` (stereo unspecified), the AC50 was 15.8 µM [falling, partial curve]. In the case of `O=C(Nc1nccs1)c1ccc(CSc2nnnn2-c2ccccc2)cc1`, the AC50 is reported as 5.01 µM [falling, full curve]. In the case of `COc1ccc(-c2nn(-c3ccccc3)cc2C2NC(=O)NC(C)=C2C(=O)OC(C)C)cc1Cl` (stereo unspecified), the AC50 is reported as 25.1 µM [falling, single point]. With `COc1ccc(NC(=O)N(Cc2cc3cc(OC)ccc3[nH]c2=O)CC2CCCO2)cc1` (stereo unspecified) the AC50 was 10 µM [falling, partial curve]. In the case of `CN(Cc1ccccc1)c1ncnc2c1nnn2C`, the AC50 is reported as 3.98 µM [rising, partial curve]. With `COc1ccc(-c2nnc(SCC(=O)N(C)C3CCCCC3)o2)cc1OC` the AC50 was 10 µM [falling, partial curve]. In the case of `COC(=O)c1sccc1S(=O)(=O)N(CC(=O)Nc1ccccc1F)c1ccccc1`, the AC50 is reported as 15.8 µM [falling, partial curve]. For `Cc1cccc(C(=O)n2nc(-c3cccnc3)nc2NCc2ccccc2)c1`, the AC50 was 25.1 µM [falling, partial curve]. With `Cc1ccc(C(=O)NCCc2ccc(S(N)(=O)=O)cc2)cc1-n1cnc2cccnc21` the AC50 was 5.01 µM [falling, partial curve]. For `Cc1ccc(NC(=O)Nc2ccccc2OCc2cc(=O)n3ccccc3n2)c(Cl)c1`, the AC50 was 39.8 µM [rising, single point]. With `COC(=O)c1c(NC(=O)Cc2coc3ccc(C(C)C)cc23)sc2c1CCC2` the AC50 was 2 µM [falling, full curve]. In the case of `Cc1ccc(N=C2NC(=O)CC(C(=O)Nc3cc(C(F)(F)F)ccc3Cl)S2)cc1` (stereo unspecified), the AC50 is reported as 12.6 µM [falling, partial curve]. In the case of `O=S(=O)(c1ccc(Cl)cc1)c1nnn2c1nc(NCc1ccc3c(c1)OCO3)c1sccc12`, the AC50 is reported as 20 µM [falling, partial curve, poor fit]. In the case of `COc1cc(Nc2cc(C)nc3ncnn23)cc(OC)c1`, the AC50 is reported as 15.8 µM [rising, partial curve] [measured here: IkB-luc green channel]. For `Cc1ccc(N(CC(=O)Nc2cc(C)ccc2C)S(=O)(=O)c2c(C)noc2C)cc1`, the AC50 was 15.8 µM [falling, partial curve]. With `COc1cc(Cl)c(NS(=O)(=O)c2cc(-c3cc(C)no3)ccc2OC)c(OC)c1` the AC50 was 2.51 µM [rising, partial curve, poor fit]. For `CC1CC(N(C(=O)c2ccco2)c2ccccc2)c2ccccc2N1` (stereo unspecified), the AC50 was 20 µM [falling, partial curve]. For `CCOc1ccccc1NC(=O)C1CCN(S(=O)(=O)c2ccc3c(c2)CCCN3C(C)=O)CC1`, the AC50 was 15.8 µM [falling, partial curve]. For `CCS(=O)(=O)c1ncc(Cl)c(C(=O)Nc2ccccc2)n1`, the AC50 was 7.94 µM [falling, full curve]. For `CCC(=O)N1CCc2cc(CNC(=O)c3ccc(OC)cc3)ccc21`, the AC50 was 2.51 µM [rising, full curve]. With `CCn1nc(-c2ccccc2)c(-c2ccccc2)c(C(=O)Nc2nc(C)c(C(C)=O)s2)c1=O` the AC50 was 20 µM [falling, partial curve]. With `Cc1ccc(NC(=O)CSc2nc(=O)n(Cc3ccco3)c3c2CCC3)cc1F` the AC50 was 15.8 µM [falling, partial curve]. With `CCn1c(=O)cc(SCC(=O)NCCCN2CCN(c3ccc(F)cc3)CC2)c2ccccc21` the AC50 was 7.94 µM [falling, partial curve]. In the case of `O=C(Nc1sc2c(c1C(=O)Nc1cccc(Cl)c1)CCCC2)c1cccs1`, the AC50 is reported as 7.94 µM [falling, full curve]. With `O=C(CSc1ncn(-c2ccccc2)n1)Nc1nc2ccccc2s1` the AC50 was 15.8 µM [falling, partial curve]. For `Cc1ccc2c(c1)-c1onc(C(=O)N3CCN(c4cc(Cl)ccc4C)CC3)c1CO2`, the AC50 was 5.01 µM [falling, partial curve]. For `CCOc1ccc(-c2nnc(SCC(=O)Nc3ccc(C)cc3Cl)o2)cc1`, the AC50 was 3.98 µM [rising, partial curve]. For `O=C(Nc1cc(N2CCOCC2)ncn1)NC1(C(F)(F)F)Oc2ccc(Cl)cc2O1` (stereo unspecified), the AC50 was 10 µM [falling, partial curve]. In the case of `O=C(Nc1ccc(Cl)cn1)c1cc2ccccc2o1`, the AC50 is reported as 6.31 µM [falling, partial curve]. With `CCN(Cc1ccccc1)C(=O)c1cc2c(=O)[nH]c3ccc(C)cc3c2s1` the AC50 was 0.158 µM [falling, full curve, poor fit]. With `Cc1cccc(Cn2c(COc3ccc(Cl)cc3)nc3ccccc32)c1` the AC50 was 20 µM [falling, single point]. In the case of `Cc1ccc(CCNC(=O)c2cc3n(n2)CCCN(Cc2ccc(C)cc2)C3=O)cc1`, the AC50 is reported as 6.31 µM [rising, single point]. In the case of `Cn1c(SCc2nc3ccccc3s2)nnc1-c1ccc2c(c1)OCO2`, the AC50 is reported as 15.8 µM [falling, partial curve]. For `CCOc1ccc(S(=O)(=O)N(CC(=O)NCCSc2ccc(C)cc2)c2ccccc2)cc1`, the AC50 was 12.6 µM [falling, partial curve]. With `Cc1ccc(NC(=O)N2CCN(c3ccc(Cl)c(Cl)c3)CC2)cc1` the AC50 was 2.51 µM [falling, full curve]. With `CCOC(=O)c1ccc(NC(=O)CC2Nc3ccccc3NC2=O)cc1` (stereo unspecified) the AC50 was 3.98 µM [falling, partial curve]. In the case of `O=C(Nc1cc(-c2nc3cc(Cl)ccc3o2)ccc1Cl)c1cc([N+](=O)[O-])ccc1N1CCOCC1`, the AC50 is reported as 6.31 µM [falling, partial curve]. With `Cn1c(=O)oc2cc(S(=O)(=O)N3CCN(c4cccc(Cl)c4)CC3)ccc21` the AC50 was 3.16 µM [falling, full curve]. For `Cc1ccc(-c2nnc(Nc3ccc(F)cc3)c3ccccc23)cc1S(=O)(=O)N1CCN(C)CC1`, the AC50 was 15.8 µM [falling, partial curve]. With `CCOc1cccc2c1Oc1nc(-c3ccccc3)nc(SCC(=O)Nc3ccc(F)cc3)c1C2` the AC50 was 25.1 µM [falling, single point]. With `COc1ccc(OC)c(CCNC(=O)c2cnn(-c3ccc(C)cc3C)c2C2CCN(C(=O)OC(C)(C)C)CC2)c1` the AC50 was 15.8 µM [falling, partial curve]. In the case of `Cc1c(C(=O)N2CCC(C)CC2)c(S(=O)(=O)Nc2cccc(C(F)(F)F)c2)c(C)n1C`, the AC50 is reported as 39.8 µM [falling, single point]. With `COc1ccc(CNC(=O)Cn2c(=O)ccc3cc(S(=O)(=O)N4CCCC4)ccc32)cc1` the AC50 was 0.398 µM [rising, full curve]. For `COc1ccc2[nH]cc(CCNC(=O)c3cnn(-c4ccc(C)cc4)c3C3CCN(C(=O)OC(C)(C)C)CC3)c2c1`, the AC50 was 15.8 µM [falling, partial curve]. With `CC(=O)Nc1ccc(NC(=O)C2(c3cccs3)CCOCC2)cc1` the AC50 was 3.98 µM [rising, partial curve]. For `CC(C)N(Cc1ccccc1)C(=O)C1CCCN(c2ncnc3onc(-c4ccc(F)cc4)c23)C1` (stereo unspecified), the AC50 was 31.6 µM [falling, partial curve]. For `COc1ccc(OC)c(NC(=O)c2cc(C3CC3)nc3c2c(C)nn3-c2ccc(C)cc2)c1`, the AC50 was 15.8 µM [falling, partial curve]. For `Cc1ccc(S(=O)(=O)N2CCCC(C(=O)N(Cc3cccs3)C3CC3)C2)cc1` (stereo unspecified), the AC50 was 12.6 µM [falling, partial curve]. In the case of `COc1ccc(C(=O)NCc2ccc3c(c2)CCN3C(=O)c2ccc(C)cc2)cc1`, the AC50 is reported as 5.01 µM [falling, partial curve].
